Results deposited as PubChem BioAssay AID743454 (Peter MacCallum Cancer Centre, 2014)

Purpose: 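Knock-downs lowering viability or raising caspase 3/7 activity in vorinostat-treated resistant cells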 (primary screen)
Cells: human HCT116-VR colon cancer cells, selected for vorinostat resistance
Reagent: siRNA pool against human genes, 40 nM siRNA pool
Time to read-out: vorinostat for 24 h, read-out about 72 h after transfection
Treatment: vorinostat at 2.5 µM final
Measurement: 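Two measures, CellTiter-Fluor viability and luminescent caspase 3/7 activity, each as fold change against same-plate mock wells, mean of duplicates, then screen-wide robust z-score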
Scale: viability robust z-score: higher = more viable cells than screen typical; caspase robust z-score: higher = more caspase 3/7 activity than screen typical
Call rule: 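Hits are knock-downs in viability class RV1/RV2 or caspase class CA1/CA2, excluding ones that killed cells in the no-drug cell-count arm; hits then retested with single siRNAs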
In all, the deposit lists about 18,000 reagents; below is an unselected part. In the full data, 450 (2.5%) got an active call. 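Single biological run; no consistent viability z cut-off exists, so the class columns, not z-scores, define the calls.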 Unmarked entries are inactive.

{"gene":"UQCRC1","viability hit class":"no change","caspase hit class":"no change","viability robust z-score":-0.24,"caspase robust z-score":0.72}
{"gene":"OR6M1","viability hit class":"no change","caspase hit class":"no change","viability robust z-score":0.38,"caspase robust z-score":-0.73}
{"gene":"LAT2","viability hit class":"no change","caspase hit class":"no change","viability robust z-score":-0.22,"caspase robust z-score":-0.07}
{"gene":"DKK2","viability hit class":"no change","caspase hit class":"no change","viability robust z-score":-0.05,"caspase robust z-score":1.73}
{"gene":"ARHGAP15","viability hit class":"no change","caspase hit class":"no change","viability robust z-score":1.4,"caspase robust z-score":-0.5}
{"gene":"MVP","viability hit class":"no change","caspase hit class":"no change","viability robust z-score":-0.28,"caspase robust z-score":1.21}
{"gene":"PIK3CD","viability hit class":"no change","caspase hit class":"no change","viability robust z-score":-0.34,"caspase robust z-score":-0.53}
{"gene":"MYBPC3","viability hit class":"no change","caspase hit class":"no change","viability robust z-score":-0.44,"caspase robust z-score":1.8}
{"gene":"TTR","viability hit class":"no change","caspase hit class":"no change","viability robust z-score":-0.6,"caspase robust z-score":-0.63}

Continued, starting with the last 2 of the part before.
{"gene":"MYBPC3","viability hit class":"no change","caspase hit class":"no change","viability robust z-score":-0.44,"caspase robust z-score":1.8}
{"gene":"TTR","viability hit class":"no change","caspase hit class":"no change","viability robust z-score":-0.6,"caspase robust z-score":-0.63}
{"gene":"TMEM139","viability hit class":"no change","caspase hit class":"no change","viability robust z-score":-0.15,"caspase robust z-score":1.86}
{"gene":"SPRR2B","viability hit class":"no change","caspase hit class":"no change","viability robust z-score":0.2,"caspase robust z-score":0}
{"gene":"PPP2R1B","viability hit class":"no change","caspase hit class":"no change","viability robust z-score":-0.42,"caspase robust z-score":-0.06}
{"gene":"TSPAN7","viability hit class":"no change","caspase hit class":"no change","viability robust z-score":0.82,"caspase robust z-score":0.48}
{"gene":"BTN3A2","viability hit class":"no change","caspase hit class":"no change","viability robust z-score":1.28,"caspase robust z-score":-1.03}
{"gene":"PPWD1","viability hit class":"no change","caspase hit class":"no change","viability robust z-score":0.67,"caspase robust z-score":1.02}
{"gene":"CORO1B","viability hit class":"no change","caspase hit class":"no change","viability robust z-score":-0.36,"caspase robust z-score":3.52}
{"gene":"TCF7","viability hit class":"no change","caspase hit class":"no change","viability robust z-score":-1,"caspase robust z-score":-0.44}
{"gene":"RWDD2B","viability hit class":"no change","caspase hit class":"no change","viability robust z-score":1.86,"caspase robust z-score":-0.46}
{"gene":"PIWIL1","viability hit class":"no change","caspase hit class":"no change","viability robust z-score":0.5,"caspase robust z-score":-0.7}
{"gene":"RNGTT","viability hit class":"no change","caspase hit class":"no change","viability robust z-score":-0.49,"caspase robust z-score":-0.88}
{"gene":"RUFY1","viability hit class":"no change","caspase hit class":"no change","viability robust z-score":0.76,"caspase robust z-score":1.79}
